Results as given in the supplement of paper PMC12823440, “Inhibitors supercharge kinase turnover through native proteolytic circuits” (Nature, 2025).
Counter-ions that a name gives are not always drawn. Some of the results follow. Hit calls seldom repeat between salt and free forms of one compound.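 Kinases, fused to nanoluciferase, were expressed in K562 cells; luminescence was measured every 4 h from 2 to 18 h as percent of control (DMSO = 100%, positive control = 0%). A time point is decreased if signal falls significantly (2 sigma). Hits were called by the authors by a rule that is not shown; the count of time points alone does not decide it.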

Chains of the proteins cited; added tags and fusions are not shown. Lines headed by an entry give the natural chain unless they say otherwise; changes in a name come on top.
UniProt P07949, whole entry, looked up: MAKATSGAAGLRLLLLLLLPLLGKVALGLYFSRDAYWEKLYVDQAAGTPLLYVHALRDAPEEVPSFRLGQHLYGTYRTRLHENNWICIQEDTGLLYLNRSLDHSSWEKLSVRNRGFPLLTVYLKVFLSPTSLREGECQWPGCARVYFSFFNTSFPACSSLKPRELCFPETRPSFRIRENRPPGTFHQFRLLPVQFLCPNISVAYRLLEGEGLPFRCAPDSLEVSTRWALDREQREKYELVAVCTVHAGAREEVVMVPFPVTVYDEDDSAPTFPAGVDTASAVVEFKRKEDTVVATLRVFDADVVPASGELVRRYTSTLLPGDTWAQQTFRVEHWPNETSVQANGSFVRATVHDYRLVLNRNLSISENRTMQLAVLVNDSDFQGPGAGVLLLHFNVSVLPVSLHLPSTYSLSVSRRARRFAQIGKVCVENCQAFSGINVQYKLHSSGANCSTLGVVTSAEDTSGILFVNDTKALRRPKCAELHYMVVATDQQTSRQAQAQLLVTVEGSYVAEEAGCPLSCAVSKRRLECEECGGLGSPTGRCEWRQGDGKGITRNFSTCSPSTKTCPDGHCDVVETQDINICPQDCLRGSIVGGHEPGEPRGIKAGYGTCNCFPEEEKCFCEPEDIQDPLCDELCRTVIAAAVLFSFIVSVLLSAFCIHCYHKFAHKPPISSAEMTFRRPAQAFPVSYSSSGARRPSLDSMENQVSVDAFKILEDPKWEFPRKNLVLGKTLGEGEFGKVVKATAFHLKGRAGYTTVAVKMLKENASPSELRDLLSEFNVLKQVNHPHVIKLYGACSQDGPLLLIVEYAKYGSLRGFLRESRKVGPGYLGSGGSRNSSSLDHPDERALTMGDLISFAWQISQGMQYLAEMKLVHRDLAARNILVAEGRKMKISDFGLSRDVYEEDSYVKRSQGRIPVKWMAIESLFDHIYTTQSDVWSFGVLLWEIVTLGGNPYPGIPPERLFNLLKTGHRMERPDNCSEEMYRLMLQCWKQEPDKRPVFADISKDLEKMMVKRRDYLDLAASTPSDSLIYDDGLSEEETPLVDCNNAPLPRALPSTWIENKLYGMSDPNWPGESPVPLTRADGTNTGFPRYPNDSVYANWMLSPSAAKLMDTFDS
UniProt P07949, whole entry M918T, looked up: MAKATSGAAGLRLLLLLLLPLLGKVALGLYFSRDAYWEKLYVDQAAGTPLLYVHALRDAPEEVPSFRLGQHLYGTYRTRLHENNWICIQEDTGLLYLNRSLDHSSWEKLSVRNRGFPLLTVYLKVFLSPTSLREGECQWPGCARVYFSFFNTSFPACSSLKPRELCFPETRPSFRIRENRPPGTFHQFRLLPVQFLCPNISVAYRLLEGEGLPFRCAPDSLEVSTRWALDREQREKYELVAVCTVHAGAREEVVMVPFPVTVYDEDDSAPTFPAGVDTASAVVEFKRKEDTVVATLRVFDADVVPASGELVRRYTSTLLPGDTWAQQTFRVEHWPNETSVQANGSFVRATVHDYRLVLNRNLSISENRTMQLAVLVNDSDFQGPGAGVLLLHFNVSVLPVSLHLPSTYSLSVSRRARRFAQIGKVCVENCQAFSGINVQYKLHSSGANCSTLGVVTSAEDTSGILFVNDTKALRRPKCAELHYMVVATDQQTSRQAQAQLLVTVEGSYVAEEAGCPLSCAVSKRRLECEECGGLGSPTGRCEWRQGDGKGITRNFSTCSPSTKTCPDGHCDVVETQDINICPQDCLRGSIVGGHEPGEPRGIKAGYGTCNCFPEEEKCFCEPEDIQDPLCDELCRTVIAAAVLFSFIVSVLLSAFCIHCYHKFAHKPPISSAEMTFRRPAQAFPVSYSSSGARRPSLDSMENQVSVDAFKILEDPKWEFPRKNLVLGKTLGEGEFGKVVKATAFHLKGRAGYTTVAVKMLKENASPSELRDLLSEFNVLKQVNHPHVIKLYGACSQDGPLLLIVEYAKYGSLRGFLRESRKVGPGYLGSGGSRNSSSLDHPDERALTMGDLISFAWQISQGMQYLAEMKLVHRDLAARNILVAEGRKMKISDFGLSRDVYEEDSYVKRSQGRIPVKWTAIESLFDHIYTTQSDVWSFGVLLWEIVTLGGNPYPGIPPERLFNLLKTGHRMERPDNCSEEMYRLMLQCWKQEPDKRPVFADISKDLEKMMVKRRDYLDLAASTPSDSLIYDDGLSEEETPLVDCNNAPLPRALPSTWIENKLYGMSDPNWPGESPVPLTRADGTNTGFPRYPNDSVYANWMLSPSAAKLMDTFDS
UniProt Q9BRS2: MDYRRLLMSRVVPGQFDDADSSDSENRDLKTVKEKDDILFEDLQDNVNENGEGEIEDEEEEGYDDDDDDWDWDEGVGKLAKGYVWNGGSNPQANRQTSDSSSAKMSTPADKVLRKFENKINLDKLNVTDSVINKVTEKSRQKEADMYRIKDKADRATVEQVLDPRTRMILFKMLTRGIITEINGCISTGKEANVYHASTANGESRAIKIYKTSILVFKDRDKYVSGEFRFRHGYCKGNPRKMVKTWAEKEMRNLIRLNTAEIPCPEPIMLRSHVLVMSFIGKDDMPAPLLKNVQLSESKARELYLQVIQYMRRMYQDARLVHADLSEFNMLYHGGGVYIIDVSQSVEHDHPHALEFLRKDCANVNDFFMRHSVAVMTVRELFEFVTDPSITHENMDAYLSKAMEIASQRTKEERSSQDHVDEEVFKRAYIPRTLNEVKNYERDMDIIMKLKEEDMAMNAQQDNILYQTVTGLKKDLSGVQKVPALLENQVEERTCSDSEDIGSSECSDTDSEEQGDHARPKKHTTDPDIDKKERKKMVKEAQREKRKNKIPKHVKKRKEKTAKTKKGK
UniProt Q13546: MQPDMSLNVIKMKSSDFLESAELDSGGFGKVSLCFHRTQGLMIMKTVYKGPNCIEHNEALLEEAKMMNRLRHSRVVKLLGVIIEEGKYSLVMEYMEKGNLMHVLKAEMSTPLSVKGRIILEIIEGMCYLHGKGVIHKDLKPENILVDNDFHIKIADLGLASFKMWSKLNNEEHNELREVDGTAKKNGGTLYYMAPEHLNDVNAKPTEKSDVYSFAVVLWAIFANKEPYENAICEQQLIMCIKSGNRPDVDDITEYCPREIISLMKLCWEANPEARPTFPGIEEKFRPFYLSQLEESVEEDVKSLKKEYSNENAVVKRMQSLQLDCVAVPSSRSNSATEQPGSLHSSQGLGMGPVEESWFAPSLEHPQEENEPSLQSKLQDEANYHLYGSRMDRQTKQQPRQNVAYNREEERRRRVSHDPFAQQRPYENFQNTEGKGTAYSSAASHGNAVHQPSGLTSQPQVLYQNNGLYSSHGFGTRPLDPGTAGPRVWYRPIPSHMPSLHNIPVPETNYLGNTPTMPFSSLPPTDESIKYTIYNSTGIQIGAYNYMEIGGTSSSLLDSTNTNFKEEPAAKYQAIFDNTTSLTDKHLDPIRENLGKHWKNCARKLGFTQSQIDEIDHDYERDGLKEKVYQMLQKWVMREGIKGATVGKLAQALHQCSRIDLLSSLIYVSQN
UniProt Q9NYA1, whole entry: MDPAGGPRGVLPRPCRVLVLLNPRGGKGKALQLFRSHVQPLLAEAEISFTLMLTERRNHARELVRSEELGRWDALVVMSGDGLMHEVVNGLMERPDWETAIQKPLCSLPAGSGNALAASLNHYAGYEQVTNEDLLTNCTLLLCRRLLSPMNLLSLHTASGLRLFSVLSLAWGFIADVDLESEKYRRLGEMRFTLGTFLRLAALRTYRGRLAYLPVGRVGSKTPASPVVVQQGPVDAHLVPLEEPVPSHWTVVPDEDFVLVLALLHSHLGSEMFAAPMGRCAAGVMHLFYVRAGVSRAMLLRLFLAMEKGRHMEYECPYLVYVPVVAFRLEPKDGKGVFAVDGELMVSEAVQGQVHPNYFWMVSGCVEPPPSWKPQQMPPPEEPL
UniProt Q9Y6E0: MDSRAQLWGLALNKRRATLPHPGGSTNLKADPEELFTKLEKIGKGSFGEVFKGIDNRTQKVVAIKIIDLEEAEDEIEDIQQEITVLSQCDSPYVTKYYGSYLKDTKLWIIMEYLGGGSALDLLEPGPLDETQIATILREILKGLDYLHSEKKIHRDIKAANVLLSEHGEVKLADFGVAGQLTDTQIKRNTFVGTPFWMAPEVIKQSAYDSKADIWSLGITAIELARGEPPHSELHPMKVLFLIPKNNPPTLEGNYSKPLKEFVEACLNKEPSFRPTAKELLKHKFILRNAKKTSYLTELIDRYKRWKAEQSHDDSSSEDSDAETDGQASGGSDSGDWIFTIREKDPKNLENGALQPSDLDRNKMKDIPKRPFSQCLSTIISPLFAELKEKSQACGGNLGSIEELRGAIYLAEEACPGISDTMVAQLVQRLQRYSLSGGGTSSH
UniProt Q15208: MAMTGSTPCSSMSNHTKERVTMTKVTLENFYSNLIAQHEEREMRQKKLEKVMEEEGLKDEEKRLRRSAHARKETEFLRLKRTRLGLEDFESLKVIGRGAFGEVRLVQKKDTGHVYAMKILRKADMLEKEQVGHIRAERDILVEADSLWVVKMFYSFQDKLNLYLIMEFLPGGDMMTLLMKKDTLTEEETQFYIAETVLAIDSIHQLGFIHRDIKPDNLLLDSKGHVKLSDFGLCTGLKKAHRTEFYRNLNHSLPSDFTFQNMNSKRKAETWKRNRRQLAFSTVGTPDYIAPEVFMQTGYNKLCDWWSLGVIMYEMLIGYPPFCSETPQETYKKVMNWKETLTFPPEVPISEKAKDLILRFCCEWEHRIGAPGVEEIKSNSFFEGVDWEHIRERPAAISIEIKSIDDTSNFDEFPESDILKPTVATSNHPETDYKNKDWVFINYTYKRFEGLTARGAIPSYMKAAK
UniProt P42680: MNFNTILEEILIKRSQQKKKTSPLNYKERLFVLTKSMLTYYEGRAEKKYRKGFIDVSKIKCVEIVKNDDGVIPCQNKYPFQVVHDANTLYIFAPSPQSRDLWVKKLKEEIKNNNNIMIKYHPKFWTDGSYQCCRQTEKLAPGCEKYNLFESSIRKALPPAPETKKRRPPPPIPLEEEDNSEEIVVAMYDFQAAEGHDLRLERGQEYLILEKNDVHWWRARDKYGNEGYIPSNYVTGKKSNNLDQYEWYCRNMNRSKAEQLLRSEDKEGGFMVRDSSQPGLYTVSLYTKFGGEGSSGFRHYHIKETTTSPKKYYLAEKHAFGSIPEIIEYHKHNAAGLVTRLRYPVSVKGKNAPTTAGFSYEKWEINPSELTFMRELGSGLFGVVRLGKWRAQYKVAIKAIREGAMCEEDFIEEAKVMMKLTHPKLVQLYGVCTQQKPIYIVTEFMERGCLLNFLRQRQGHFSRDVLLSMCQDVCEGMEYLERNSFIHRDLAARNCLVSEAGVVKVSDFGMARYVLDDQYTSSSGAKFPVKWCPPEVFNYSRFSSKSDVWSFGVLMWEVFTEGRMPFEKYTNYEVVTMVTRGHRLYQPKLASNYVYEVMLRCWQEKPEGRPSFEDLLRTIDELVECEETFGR
UniProt Q6PHR2: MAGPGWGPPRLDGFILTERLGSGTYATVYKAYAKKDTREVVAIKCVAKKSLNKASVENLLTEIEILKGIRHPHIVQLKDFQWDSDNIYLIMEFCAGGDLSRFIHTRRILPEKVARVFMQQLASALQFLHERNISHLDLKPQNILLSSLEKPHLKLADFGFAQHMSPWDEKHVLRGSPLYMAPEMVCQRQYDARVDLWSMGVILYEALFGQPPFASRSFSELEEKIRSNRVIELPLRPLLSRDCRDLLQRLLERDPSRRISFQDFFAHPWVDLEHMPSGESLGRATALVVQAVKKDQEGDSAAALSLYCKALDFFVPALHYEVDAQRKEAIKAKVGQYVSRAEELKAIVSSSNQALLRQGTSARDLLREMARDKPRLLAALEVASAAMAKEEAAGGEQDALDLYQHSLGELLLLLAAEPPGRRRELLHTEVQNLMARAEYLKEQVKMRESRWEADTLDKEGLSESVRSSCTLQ
UniProt P07947, whole entry, looked up: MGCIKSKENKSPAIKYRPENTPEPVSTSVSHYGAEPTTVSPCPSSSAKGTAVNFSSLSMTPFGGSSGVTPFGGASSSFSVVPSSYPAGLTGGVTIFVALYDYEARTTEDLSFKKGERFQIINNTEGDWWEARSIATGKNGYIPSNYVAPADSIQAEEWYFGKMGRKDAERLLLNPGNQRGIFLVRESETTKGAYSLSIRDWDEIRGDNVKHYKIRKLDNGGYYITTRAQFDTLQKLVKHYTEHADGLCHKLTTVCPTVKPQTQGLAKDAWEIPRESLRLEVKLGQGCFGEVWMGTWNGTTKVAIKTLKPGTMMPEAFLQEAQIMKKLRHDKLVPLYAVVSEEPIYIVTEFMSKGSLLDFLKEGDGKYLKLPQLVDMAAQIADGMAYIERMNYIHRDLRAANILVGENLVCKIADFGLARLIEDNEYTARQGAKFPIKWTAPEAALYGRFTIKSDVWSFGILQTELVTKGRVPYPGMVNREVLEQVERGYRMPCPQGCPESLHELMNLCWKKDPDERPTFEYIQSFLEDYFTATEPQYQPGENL

Tests used:
Settings in all cases: K562; 2-18 h
RET = RET (UniProt P07949); test: kinase-Nluc reporter destabilization hit call (1 = scored as downregulated) (binary); higher = compound decreases kinase abundance
[1] = target: RET_M918T (clone: RET_mut) (UniProt P07949); test: as above
RIOK1 = RIOK1 (UniProt Q9BRS2); test: as above
RIPK1 = RIPK1 (UniProt Q13546); test: as above
RIPK2 = RIPK2 (UniProt O43353); test: as above
ROR2 = ROR2 (UniProt Q01974); test: as above
RPS6KA1 = RPS6KA1 (UniProt Q15418); test: as above
SPHK1 = SPHK1 (UniProt Q9NYA1); test: as above
SRC = SRC (UniProt P12931); test: as above
STK24 = STK24 (UniProt Q9Y6E0); test: as above
STK38 = STK38 (UniProt Q15208); test: as above
SYK = SYK (UniProt P43405); test: as above
TEC = TEC (UniProt P42680); test: as above
TYK2 = TYK2 (UniProt P29597); test: as above
ULK3 = ULK3 (UniProt Q6PHR2); test: as above
YES1 = YES1 (UniProt P07947); test: as above
ZAK = ZAK (UniProt Q9NYL2); test: as above
ZAP70 = ZAP70 (UniProt P43403); test: as above
ABL1 = ABL1 (UniProt P00519); test: number of time points (of 5) at which kinase-Nluc abundance scored as decreased, DMSO-normalised (count); higher = more persistent destabilization
AKT1 = AKT1 (UniProt P31749); test: as above

SMILES | kinase-Nluc reporter destabilization hit call (RET) | kinase-Nluc reporter destabilization hit call [1] | kinase-Nluc reporter destabilization hit call (RIOK1) | kinase-Nluc reporter destabilization hit call (RIPK1) | kinase-Nluc reporter destabilization hit call (RIPK2) | kinase-Nluc reporter destabilization hit call (ROR2) | kinase-Nluc reporter destabilization hit call (RPS6KA1) | kinase-Nluc reporter destabilization hit call (SPHK1) | kinase-Nluc reporter destabilization hit call (SRC) | kinase-Nluc reporter destabilization hit call (STK24) | kinase-Nluc reporter destabilization hit call (STK38) | kinase-Nluc reporter destabilization hit call (SYK) | kinase-Nluc reporter destabilization hit call (TEC) | kinase-Nluc reporter destabilization hit call (TYK2) | kinase-Nluc reporter destabilization hit call (ULK3) | kinase-Nluc reporter destabilization hit call (YES1) | kinase-Nluc reporter destabilization hit call (ZAK) | kinase-Nluc reporter destabilization hit call (ZAP70) | number of time points (ABL1) | number of time points (AKT1)
C[C@H](c1ccnc(Nc2nc3ccc(-c4cc(N(C)C)ncn4)cc3[nH]2)c1)N1CCN(C(=O)CC(F)(F)F)CC1 (2.5 µM) | inactive: 0 | inactive: 0 | inactive: 0 | inactive: 0 | inactive: 0 | inactive: 0 | inactive: 0 | inactive: 0 | inactive: 0 | inactive: 0 | inactive: 0 | inactive: 0 | inactive: 0 | inactive: 0 | inactive: 0 | inactive: 0 | inactive: 0 | inactive: 0 | 0 | 0
O=C(O)CCC(=O)Nc1ccc(Br)cn1 [Bikinin] (10 µM) | inactive: 0 | inactive: 0 | inactive: 0 | inactive: 0 | inactive: 0 | inactive: 0 | inactive: 0 | inactive: 0 | inactive: 0 | inactive: 0 | inactive: 0 | inactive: 0 | inactive: 0 | inactive: 0 | inactive: 0 | inactive: 0 | inactive: 0 | inactive: 0 | 0 | 0
C=C(CC[C@@H](C(=O)O)[C@H]1[C@H](O)C[C@@]2(C)C3=C(CC[C@]12C)[C@@]1(C)CC[C@H](OC(C)=O)C(C)(C)[C@@H]1CC3)C(C)C [Pachymic acid] (10 µM) | inactive: 0 | inactive: 0 | inactive: 0 | inactive: 0 | inactive: 0 | inactive: 0 | inactive: 0 | inactive: 0 | inactive: 0 | inactive: 0 | inactive: 0 | inactive: 0 | inactive: 0 | inactive: 0 | inactive: 0 | inactive: 0 | inactive: 0 | inactive: 0 | 0 | 0
Oc1cc(O)c2cc(O)c(-c3cc(O)c(O)c(O)c3)[o+]c2c1 [Delphinidin (chloride)] (10 µM) | inactive: 0 | inactive: 0 | inactive: 0 | inactive: 0 | inactive: 0 | inactive: 0 | inactive: 0 | inactive: 0 | inactive: 0 | inactive: 0 | inactive: 0 | inactive: 0 | inactive: 0 | inactive: 0 | inactive: 0 | inactive: 0 | inactive: 0 | inactive: 0 | 4 | 0
CCOC(=O)N1CCN(C(=O)[C@H](Cc2cccc(C(=N)N)c2)NS(=O)(=O)c2c(C(C)C)cc(C(C)C)cc2C(C)C)CC1 (10 µM) | inactive: 0 | inactive: 0 | inactive: 0 | inactive: 0 | inactive: 0 | inactive: 0 | inactive: 0 | inactive: 0 | inactive: 0 | inactive: 0 | inactive: 0 | inactive: 0 | inactive: 0 | inactive: 0 | inactive: 0 | inactive: 0 | inactive: 0 | inactive: 0 | 0 | 0
Cc1ccccc1-c1c2nccc(-c3ccc(F)cc3F)c2cc[n+]1[O-] (10 µM) | inactive: 0 | inactive: 0 | inactive: 0 | inactive: 0 | inactive: 0 | inactive: 0 | inactive: 0 | inactive: 0 | inactive: 0 | inactive: 0 | inactive: 0 | inactive: 0 | inactive: 0 | inactive: 0 | inactive: 0 | inactive: 0 | inactive: 0 | inactive: 0 | 0 | 0
C=CC(=O)Nc1cccc(Nc2nc(Nc3ccc(N4CCN(C(C)=O)CC4)cc3OC)ncc2C(F)(F)F)c1 [Rociletinib] (10 µM) | inactive: 0 | inactive: 0 | inactive: 0 | inactive: 0 | inactive: 0 | inactive: 0 | inactive: 0 | inactive: 0 | inactive: 0 | inactive: 0 | inactive: 0 | inactive: 0 | inactive: 0 | inactive: 0 | inactive: 0 | inactive: 0 | inactive: 0 | inactive: 0 | 0 | 0
Cc1c(-c2c(F)cc(C(N)=O)c3[nH]c4c(c23)CC[C@H](C(C)(C)O)C4)cccc1-n1c(=O)c2cccc(F)c2n(C)c1=O (2.5 µM) | inactive: 0 | inactive: 0 | inactive: 0 | inactive: 0 | inactive: 0 | inactive: 0 | inactive: 0 | inactive: 0 | inactive: 0 | inactive: 0 | inactive: 0 | inactive: 0 | inactive: 0 | inactive: 0 | inactive: 0 | inactive: 0 | inactive: 0 | inactive: 0 | 0 | 0
C=CC(=O)Nc1cccc(Nc2nc(Nc3ccc(NC4CN(CCF)C4)cc3OC)ncc2C(F)(F)F)c1 (2.5 µM) | inactive: 0 | inactive: 0 | inactive: 0 | inactive: 0 | inactive: 0 | inactive: 0 | inactive: 0 | inactive: 0 | inactive: 0 | inactive: 0 | inactive: 0 | inactive: 0 | inactive: 0 | inactive: 0 | inactive: 0 | inactive: 0 | inactive: 0 | inactive: 0 | 0 | 0
CCCS(=O)(=O)Nc1ccc(F)c(C(=O)c2c[nH]c3ncc(-c4ccc(Cl)cc4)cc23)c1F [Vemurafenib] (10 µM) | inactive: 0 | inactive: 0 | inactive: 0 | inactive: 0 | inactive: 0 | inactive: 0 | inactive: 0 | inactive: 0 | inactive: 0 | inactive: 0 | inactive: 0 | inactive: 0 | inactive: 0 | inactive: 0 | inactive: 0 | inactive: 0 | inactive: 0 | inactive: 0 | 2 | 0
CNC(=O)c1ccc(C)c(-n2c(C)cc(OCc3ccc(F)cc3F)c(Br)c2=O)c1 (10 µM) | inactive: 0 | inactive: 0 | inactive: 0 | inactive: 0 | inactive: 0 | inactive: 0 | inactive: 0 | inactive: 0 | inactive: 0 | inactive: 0 | inactive: 0 | inactive: 0 | inactive: 0 | inactive: 0 | inactive: 0 | inactive: 0 | inactive: 0 | inactive: 0 | 0 | 0
N#Cc1c(C2CCNCC2)cc(-c2c(O)cccc2OCC2CC2)nc1N [ACHP (Hydrochloride)] (10 µM) | inactive: 0 | inactive: 0 | inactive: 0 | inactive: 0 | inactive: 0 | inactive: 0 | inactive: 0 | inactive: 0 | inactive: 0 | inactive: 0 | inactive: 0 | inactive: 0 | inactive: 0 | inactive: 0 | inactive: 0 | inactive: 0 | inactive: 0 | inactive: 0 | 0 | 0
CN1CCC(c2cc(-c3ccncc3)c(-c3ccc(F)cc3)[nH]2)CC1 (10 µM) | inactive: 0 | inactive: 0 | inactive: 0 | inactive: 0 | inactive: 0 | inactive: 0 | inactive: 0 | inactive: 0 | inactive: 0 | inactive: 0 | inactive: 0 | inactive: 0 | inactive: 0 | inactive: 0 | inactive: 0 | inactive: 0 | inactive: 0 | inactive: 0 | 0 | 0
Cc1cc(Nc2ncnc3ccc(NC4=NC(C)(C)CO4)cc23)ccc1Oc1ccn2ncnc2c1 [Tucatinib] (2.5 µM) | inactive: 0 | inactive: 0 | inactive: 0 | inactive: 0 | inactive: 0 | inactive: 0 | inactive: 0 | inactive: 0 | inactive: 0 | inactive: 0 | inactive: 0 | inactive: 0 | inactive: 0 | inactive: 0 | inactive: 0 | inactive: 0 | inactive: 0 | inactive: 0 | 0 | 0
COc1cc(OC2CCN(C)CC2)ccc1Nc1ncc2c(n1)n(C1CCCC1)c(=O)n2C (10 µM) | inactive: 0 | inactive: 0 | inactive: 0 | inactive: 0 | inactive: 0 | inactive: 0 | inactive: 0 | inactive: 0 | inactive: 0 | inactive: 0 | inactive: 0 | inactive: 0 | inactive: 0 | inactive: 0 | inactive: 0 | inactive: 0 | inactive: 0 | inactive: 0 | 0 | 0
O=c1cc(CN2CCOCC2)occ1OCCCCCSc1ccnc2cc(C(F)(F)F)ccc12 (10 µM) | inactive: 0 | inactive: 0 | inactive: 0 | inactive: 0 | inactive: 0 | inactive: 0 | inactive: 0 | inactive: 0 | inactive: 0 | inactive: 0 | inactive: 0 | inactive: 0 | inactive: 0 | inactive: 0 | inactive: 0 | inactive: 0 | inactive: 0 | inactive: 0 | 0 | 0
Cn1cnc(Cn2ccc3ccc(CNCc4[nH]c5ccccc5c4[C@H]4NC(=O)c5ccc(O)cc54)cc32)c1 (10 µM) | inactive: 0 | inactive: 0 | inactive: 0 | inactive: 0 | inactive: 0 | inactive: 0 | inactive: 0 | inactive: 0 | inactive: 0 | inactive: 0 | inactive: 0 | inactive: 0 | inactive: 0 | inactive: 0 | inactive: 0 | inactive: 0 | inactive: 0 | inactive: 0 | 0 | 0
O=C([O-])c1cc2ccccc2c(Cc2c(O)c(C(=O)[O-])cc3ccccc23)c1O.[Na+].[Na+] [Pamoic acid (disodium)] (10 µM) | inactive: 0 | inactive: 0 | inactive: 0 | inactive: 0 | inactive: 0 | inactive: 0 | inactive: 0 | inactive: 0 | inactive: 0 | inactive: 0 | inactive: 0 | inactive: 0 | inactive: 0 | inactive: 0 | inactive: 0 | inactive: 0 | inactive: 0 | inactive: 0 | 0 | 0

A stretch taken from the entries so far:
SMILES | kinase-Nluc reporter destabilization hit call (RET) | kinase-Nluc reporter destabilization hit call [1] | kinase-Nluc reporter destabilization hit call (RIOK1) | kinase-Nluc reporter destabilization hit call (RIPK1) | kinase-Nluc reporter destabilization hit call (RIPK2) | kinase-Nluc reporter destabilization hit call (ROR2) | kinase-Nluc reporter destabilization hit call (RPS6KA1) | kinase-Nluc reporter destabilization hit call (SPHK1) | kinase-Nluc reporter destabilization hit call (SRC) | kinase-Nluc reporter destabilization hit call (STK24) | kinase-Nluc reporter destabilization hit call (STK38) | kinase-Nluc reporter destabilization hit call (SYK) | kinase-Nluc reporter destabilization hit call (TEC) | kinase-Nluc reporter destabilization hit call (TYK2) | kinase-Nluc reporter destabilization hit call (ULK3) | kinase-Nluc reporter destabilization hit call (YES1) | kinase-Nluc reporter destabilization hit call (ZAK) | kinase-Nluc reporter destabilization hit call (ZAP70) | number of time points (ABL1) | number of time points (AKT1)
COc1cc(OC2CCN(C)CC2)ccc1Nc1ncc2c(n1)n(C1CCCC1)c(=O)n2C (10 µM) | inactive: 0 | inactive: 0 | inactive: 0 | inactive: 0 | inactive: 0 | inactive: 0 | inactive: 0 | inactive: 0 | inactive: 0 | inactive: 0 | inactive: 0 | inactive: 0 | inactive: 0 | inactive: 0 | inactive: 0 | inactive: 0 | inactive: 0 | inactive: 0 | 0 | 0
O=c1cc(CN2CCOCC2)occ1OCCCCCSc1ccnc2cc(C(F)(F)F)ccc12 (10 µM) | inactive: 0 | inactive: 0 | inactive: 0 | inactive: 0 | inactive: 0 | inactive: 0 | inactive: 0 | inactive: 0 | inactive: 0 | inactive: 0 | inactive: 0 | inactive: 0 | inactive: 0 | inactive: 0 | inactive: 0 | inactive: 0 | inactive: 0 | inactive: 0 | 0 | 0
